Assay results as given in publication PMC6770535.
These are yes or no findings as the source states them, for the method shown. In cells and extracts the contact can be indirect. Some results given as binding are weak or reduced against the parent protein; the word gives no strength. Blank lines part the entries; values can stand above or below the substance they belong to.

Sequences of proteins named here, by UniProt entry; tags and fusion partners are left off.
UniProt P83916: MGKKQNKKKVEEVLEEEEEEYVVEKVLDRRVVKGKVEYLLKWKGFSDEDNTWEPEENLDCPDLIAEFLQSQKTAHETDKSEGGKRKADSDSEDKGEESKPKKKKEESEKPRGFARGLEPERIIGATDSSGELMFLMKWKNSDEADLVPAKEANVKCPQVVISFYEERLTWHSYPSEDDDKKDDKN
UniProt Q13185: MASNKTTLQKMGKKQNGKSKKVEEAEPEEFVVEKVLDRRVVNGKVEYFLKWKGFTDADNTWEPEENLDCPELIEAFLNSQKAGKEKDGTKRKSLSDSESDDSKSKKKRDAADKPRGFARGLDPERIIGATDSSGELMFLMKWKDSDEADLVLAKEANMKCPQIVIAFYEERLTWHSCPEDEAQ
UniProt Q13263: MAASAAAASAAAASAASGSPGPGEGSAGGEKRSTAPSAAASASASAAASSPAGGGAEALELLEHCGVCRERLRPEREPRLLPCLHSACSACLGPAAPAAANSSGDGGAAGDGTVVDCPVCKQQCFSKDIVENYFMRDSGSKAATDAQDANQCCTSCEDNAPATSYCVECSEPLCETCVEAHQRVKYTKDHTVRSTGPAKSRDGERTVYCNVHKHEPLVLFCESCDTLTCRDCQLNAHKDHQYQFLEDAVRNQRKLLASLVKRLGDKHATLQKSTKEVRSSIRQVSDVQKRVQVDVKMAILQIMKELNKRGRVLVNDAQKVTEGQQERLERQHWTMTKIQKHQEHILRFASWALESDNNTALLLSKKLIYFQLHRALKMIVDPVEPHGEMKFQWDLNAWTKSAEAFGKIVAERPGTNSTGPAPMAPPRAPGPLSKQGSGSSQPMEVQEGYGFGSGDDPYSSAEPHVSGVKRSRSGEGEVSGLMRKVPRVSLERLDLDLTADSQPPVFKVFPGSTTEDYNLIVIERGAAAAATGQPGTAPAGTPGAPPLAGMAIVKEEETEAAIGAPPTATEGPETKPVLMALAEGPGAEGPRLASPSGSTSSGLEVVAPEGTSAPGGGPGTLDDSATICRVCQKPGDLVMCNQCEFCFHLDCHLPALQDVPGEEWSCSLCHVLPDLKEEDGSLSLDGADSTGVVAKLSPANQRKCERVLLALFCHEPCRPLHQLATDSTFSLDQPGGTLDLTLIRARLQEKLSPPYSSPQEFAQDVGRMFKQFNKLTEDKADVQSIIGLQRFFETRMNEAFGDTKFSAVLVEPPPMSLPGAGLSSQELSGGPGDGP

What was measured:
mCherry-HP1β = mCherry-HP1β (UniProt P83916); assay: FRET or BRET; FLIM-FRET in HeLa cells co-transfected with a GFP-HP1 construct (donor) and mCherry-HP1β (acceptor); ten nuclei for each experimental event
[1] = biological target: HP1γ (heterochromatin protein 1 gamma), endogenous in HeLa cells (human (endogenous in HeLa)) (UniProt Q13185); assay: co-IP; endogenous proteins of HeLa lysate (Pierce IP Lysis Buffer), Catch and Release v2.0 spin columns, overnight at 4 °C, antibodies to HP1α, HP1β or HP1γ, western blot; cells untreated, treated with SAHA (15 µM) or irradiated with γ-rays (5 Gy), harvested after 2 h
[2] = biological target: HP1β (heterochromatin protein 1 beta), endogenous in HeLa cells (human (endogenous in HeLa)) (UniProt P83916); assay: as above

binding (mCherry-HP1β): binds weakly
Substance: GFP-tagged HP1γ (from UniProt Q13185 1-183)

binding [1]: binds
Substance: HP1β (heterochromatin protein 1 beta), endogenous in HeLa cells (from UniProt P83916 1-185)

binding [2]: binds
Substance: KRAB-associated protein 1 (KAP1), endogenous in HeLa cells (from UniProt Q13263 1-835)
